This assay has as its target T1, FLAG-tagged ARMC12 from Armc12-FLAG knock-in mice (mouse) (UniProt Q80X86).
T1 sequence: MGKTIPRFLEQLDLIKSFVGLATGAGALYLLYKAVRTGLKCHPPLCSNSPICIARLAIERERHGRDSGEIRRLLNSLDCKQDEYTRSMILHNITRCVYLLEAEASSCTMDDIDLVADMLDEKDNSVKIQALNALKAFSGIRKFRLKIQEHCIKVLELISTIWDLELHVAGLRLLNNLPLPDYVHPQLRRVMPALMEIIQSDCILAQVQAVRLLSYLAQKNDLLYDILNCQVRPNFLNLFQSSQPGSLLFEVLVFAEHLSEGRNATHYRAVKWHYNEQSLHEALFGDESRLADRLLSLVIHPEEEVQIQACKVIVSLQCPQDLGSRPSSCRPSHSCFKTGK
Description: affinity purification with mass spectrometry; mitochondria isolated from WT or FLAG-tagged Armc12 KI testis; extracted proteins immunoprecipitated with anti-FLAG antibody and identified by MS.

Results are given in words; binding and its absence hold for the method and conditions named. Binding seen in cells or lysates may run through a third protein. A yes stands for co-enrichment or nearness to the bait. Other partners may have been found. Tags and fused reporters may be left off the sequences shown.

B1: GK2 (protein, UniProt Q9WU65 1-554)
chain: MAASKQTSAGPLVGAVVQGTNSTRFLVFNSKTAELVCSHQVELTQEYPKEGWVEQDPKEILKSVYECIAKACEKLAEVNIDISNIKAIGVSNQRETTVVWDKFTGDPLYNAVVWLDLRTQSTVETLTKKIPGNSNFVKSKTGLPLSTYFSAVKLRWMLDNLRPIQKAVEEGRAMFGTIDSWLIWCMTGGVNGGIHCTDVTNACRTMLFNIHSLEWDKDLCDFFEIPMSILPNVCSSSEIYGLMTSGALEGVPISGCLGDQSAALVGQMCFHEGQAKNTYGTGCFLLCNTGQKCVFSEHGLLTTLAYKLGKNKPVFYALEGSVAIAGAVIRWLRDNFEIITTSGEVENLAREVGTSYGCYFVPAFSGLYAPYWEPSARGIICGLTQFTNKCHIAFAALEAVCFQTREILDAMNRDCGIPLSHLQVDGGMTNNRILMQLQADILHIPVVKSVMPETTALGAAMAAGAAEGVNVWSLEPEDLSTILMERYEPQIQATESEIRFSTWKRAVMKSMGWVTAKDPENGDNPVFSCLPLGFFIVSSMTLLIGARCVSTAEE
Regarding B1, the binding entry is reported as “binds”.

(Values after article PMC8017931.)
